Series [1] addresses TCF-4 (Jurkat nuclear extract) (human) (UniProt Q9NQB0). The series is described as follows: EMSA. Particulars: 10 mM Tris-HCl pH 7.5, 50 mM NaCl, 1 mM MgCl2, 0.5 mM EDTA, 0.5 mM DTT, 4% glycerol, 50 ug/ml poly(dI-dC), 8 ug nuclear extract, room temperature, 30 min, protein in an extract, label: 32P 5'-end.
The target in series [2] is TCF-4 (antibody-identified, SW480 nuclear extract) (human) (UniProt Q9NQB0). The series is described as follows: EMSA. The conditions noted are these: 10 mM Tris-HCl pH 7.5, 50 mM NaCl, 1 mM MgCl2, 0.5 mM EDTA, 0.5 mM DTT, 4% glycerol, 50 ug/ml poly(dI-dC), 8 ug nuclear extract, room temperature, 30 min; protein in an extract; label: 32P 5'-end. In general terms: A gel shift assay detects complexes by their altered migration in electrophoresis.

Chains of the proteins cited; added tags and fusions are not shown. A line that says so, or that is headed by a name, gives the form on record, which may keep a tag or linker.
UniProt Q9NQB0, whole entry: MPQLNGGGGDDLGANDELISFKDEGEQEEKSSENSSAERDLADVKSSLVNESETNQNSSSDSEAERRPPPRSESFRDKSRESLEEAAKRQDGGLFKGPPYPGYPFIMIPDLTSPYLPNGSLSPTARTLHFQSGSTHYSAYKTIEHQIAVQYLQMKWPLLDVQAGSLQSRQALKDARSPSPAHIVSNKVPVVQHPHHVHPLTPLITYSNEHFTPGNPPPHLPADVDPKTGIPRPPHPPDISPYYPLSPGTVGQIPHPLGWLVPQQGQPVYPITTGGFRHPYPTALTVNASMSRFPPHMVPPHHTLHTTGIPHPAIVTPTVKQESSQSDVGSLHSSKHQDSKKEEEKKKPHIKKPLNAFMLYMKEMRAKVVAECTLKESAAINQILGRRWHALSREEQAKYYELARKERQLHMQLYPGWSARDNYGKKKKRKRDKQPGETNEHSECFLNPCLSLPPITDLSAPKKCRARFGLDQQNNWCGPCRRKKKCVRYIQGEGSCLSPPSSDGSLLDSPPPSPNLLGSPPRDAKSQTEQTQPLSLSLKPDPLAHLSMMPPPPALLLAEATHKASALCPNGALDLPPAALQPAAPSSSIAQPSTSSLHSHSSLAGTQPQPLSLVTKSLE
TCF-4 (Jurkat nuclear extract) + beta-catenin (Jurkat nuclear extract), one chain, as listed by the source, chain 2 of 2: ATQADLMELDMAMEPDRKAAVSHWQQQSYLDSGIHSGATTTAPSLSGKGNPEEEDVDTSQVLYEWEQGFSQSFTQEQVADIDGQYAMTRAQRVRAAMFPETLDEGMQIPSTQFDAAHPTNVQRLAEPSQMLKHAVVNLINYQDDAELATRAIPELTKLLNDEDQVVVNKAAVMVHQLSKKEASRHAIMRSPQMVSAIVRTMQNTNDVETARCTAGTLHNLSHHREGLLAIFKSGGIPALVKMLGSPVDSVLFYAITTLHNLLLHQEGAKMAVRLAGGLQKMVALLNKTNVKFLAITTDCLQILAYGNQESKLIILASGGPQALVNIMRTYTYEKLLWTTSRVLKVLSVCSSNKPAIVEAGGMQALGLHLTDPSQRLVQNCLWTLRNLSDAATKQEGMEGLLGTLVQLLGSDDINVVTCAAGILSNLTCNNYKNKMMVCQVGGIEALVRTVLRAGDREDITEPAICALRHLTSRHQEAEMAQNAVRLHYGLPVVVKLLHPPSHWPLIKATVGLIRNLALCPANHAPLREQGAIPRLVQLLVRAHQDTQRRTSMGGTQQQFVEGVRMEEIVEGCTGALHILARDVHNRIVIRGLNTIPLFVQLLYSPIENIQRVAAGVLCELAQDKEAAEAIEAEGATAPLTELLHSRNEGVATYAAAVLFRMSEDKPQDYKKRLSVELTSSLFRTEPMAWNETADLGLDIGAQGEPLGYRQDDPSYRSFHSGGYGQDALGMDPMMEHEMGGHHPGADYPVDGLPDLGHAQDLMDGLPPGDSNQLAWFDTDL
TCF-4 (Jurkat nuclear extract) + beta-catenin (Jurkat nuclear extract), one chain, as listed by the source, chain 1 of 2: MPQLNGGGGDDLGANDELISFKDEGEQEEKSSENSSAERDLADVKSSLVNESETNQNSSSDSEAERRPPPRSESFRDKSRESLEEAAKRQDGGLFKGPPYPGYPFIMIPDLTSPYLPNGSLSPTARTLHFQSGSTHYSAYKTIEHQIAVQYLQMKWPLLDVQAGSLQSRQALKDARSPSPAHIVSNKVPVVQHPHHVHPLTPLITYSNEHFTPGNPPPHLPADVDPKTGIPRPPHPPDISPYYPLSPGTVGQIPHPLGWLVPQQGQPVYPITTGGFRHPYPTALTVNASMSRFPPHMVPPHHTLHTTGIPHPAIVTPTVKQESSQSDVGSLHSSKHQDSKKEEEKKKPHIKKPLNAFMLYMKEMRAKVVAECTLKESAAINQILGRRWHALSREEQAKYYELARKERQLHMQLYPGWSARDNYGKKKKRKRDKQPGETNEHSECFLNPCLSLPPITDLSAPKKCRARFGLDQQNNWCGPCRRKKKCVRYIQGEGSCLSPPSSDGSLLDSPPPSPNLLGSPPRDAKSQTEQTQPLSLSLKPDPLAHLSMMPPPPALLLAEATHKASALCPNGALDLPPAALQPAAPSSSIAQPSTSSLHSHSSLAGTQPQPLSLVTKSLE

The target is the same in series [3]. Nature of the series: EMSA, antibody interference. Particulars: 10 mM Tris-HCl pH 7.5, 50 mM NaCl, 1 mM MgCl2, 0.5 mM EDTA, 0.5 mM DTT, 4% glycerol, 50 ug/ml poly(dI-dC), 8 ug nuclear extract, room temperature, 30 min, protein in an extract, label: 32P 5'-end.
Series [4] concerns TCF-4 (Jurkat nuclear extract) + beta-catenin (Jurkat nuclear extract). Nature of the series: EMSA, antibody interference. Particulars: 10 mM Tris-HCl pH 7.5, 50 mM NaCl, 1 mM MgCl2, 0.5 mM EDTA, 0.5 mM DTT, 4% glycerol, 50 ug/ml poly(dI-dC), 8 ug nuclear extract, room temperature, 30 min, protein in an extract, label: 32P 5'-end.
The target in series [5] is TCF-4 (antibody-identified, SW480 nuclear extract) (human) (UniProt Q9NQB0). Nature of the series: competition with a labelled probe. The conditions noted are these: 10 mM Tris-HCl pH 7.5, 50 mM NaCl, 1 mM MgCl2, 0.5 mM EDTA, 0.5 mM DTT, 4% glycerol, 50 ug/ml poly(dI-dC), 8 ug nuclear extract, room temperature, 30 min, protein in an extract, label: none (competitor).
Setting [6] is: lower band, increased with anti-beta-catenin.

For at least one entry, the source does not settle the construct or the ends of the probe. Results from cells or extracts need not show a direct contact. For part of these data: A negative result means that nothing was seen under these conditions. For part of these data: The comparison behind a weaker result is the experiment's own reference, which may not be listed here.

For the sequence “GTGGGTGTTTGTTTGAGA (double strand) [mTBE2 (-205G allele)]”, the binding result in series [1] (almost lost binding) was “binds more weakly”; in series [2], “no binding”.

Regarding “GCGAAATACAAAGCAGCT (double strand) [TBE1 (wild-type)]”, the binding result in series [1] (setting [6]) is reported as “binds”; in series [3] (anti-TCF-4 decreased complex, cold TBE1 200x competes) it was “binds”; in series [4] (anti-beta-catenin decreased the super-complex), “binds”.

For “GCGAAATCCAAACCAGCT (double strand) [mTBE1]”, the binding result in series [1] and in series [2] was “no binding” in each case.

Consider “GTGGGTGTTTCTTTGAGA (double strand) [TBE2 (-205C allele)]”, for which the binding result in series [1] (setting [6]) is recorded as “binds”; in series [3] (anti-TCF-4 reduced complex, cold TBE2 competes), “binds”; in series [4] (anti-beta-catenin disrupted the super-complex, cold TBE2 competes), “binds”.

In the case of “AAAACATTGTGAAATACA (double strand) [nonspecific probe (NP)]”, the binding result in series [5] (200x cold NP against labeled TBE1) and in series [5] (200x cold NP against labeled TBE2) was “no binding” throughout.
